Primary screen of a compound library

By UniProt entry, the sequences of proteins in these tests, tags left out. Residues count along the entry.
UniProt A4I591, 1-473: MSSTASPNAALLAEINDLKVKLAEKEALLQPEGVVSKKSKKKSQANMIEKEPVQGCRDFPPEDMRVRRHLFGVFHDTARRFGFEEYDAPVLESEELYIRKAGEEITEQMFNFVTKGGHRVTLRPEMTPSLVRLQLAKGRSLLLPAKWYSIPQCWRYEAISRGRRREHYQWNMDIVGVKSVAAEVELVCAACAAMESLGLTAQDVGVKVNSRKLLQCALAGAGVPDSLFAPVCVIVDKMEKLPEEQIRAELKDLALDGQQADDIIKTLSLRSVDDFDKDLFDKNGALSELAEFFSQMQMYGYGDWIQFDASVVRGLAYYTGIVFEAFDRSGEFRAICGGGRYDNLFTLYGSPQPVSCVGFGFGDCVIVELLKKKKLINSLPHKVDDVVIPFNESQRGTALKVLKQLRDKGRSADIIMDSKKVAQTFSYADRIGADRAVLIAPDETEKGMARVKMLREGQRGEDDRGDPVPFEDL

Data taken from ChEMBL document CHEMBL3988442, “University of Dundee, Small-Polar-MMV Screening Library” (2021).

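Histidine-tRNA ligase, Leishmania infantum (UniProt A4I591). Enzyme assay of histidyl-tRNA synthetase; the read-out is not stated. Concentration: 30 µM. Direction is inferred from retests: higher values go with stronger inhibition. The assay is labelled LdHisRS but filed under L. infantum. Size under these conditions: about 69,000 compounds, about 410 of them at 50% or above in at least one test.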

Results are given as percent effect. The record does not define 0% and 100%; most values in the screen are far below 50% and negative numbers occur (in some assays of this library far below -100). Compounds were drawn at random from those tested, without regard to their results.

{"compound": "CCOc1ccccc1CCN1Cc2ncccc2C1=O", "percent effect": 10.26}
{"compound": "Cc1ccc(CNC(=O)c2cc(C)n(C)n2)o1", "percent effect": 12.07}
{"compound": "O=C(NCCc1ccccc1)C1CCN(C(=O)Cn2cncn2)C1", "stereo": "stereo not drawn", "percent effect": 5.674}
{"compound": "CC(C)(C)c1noc(CN2CCN(C(=O)c3cccs3)CC2)n1", "percent effect": 8.219}
{"compound": "COc1ccc([C@@H]2CN(Cc3ccncc3)C[C@H]2c2cc[nH]n2)cc1", "percent effect": 9.396}
{"compound": "CCc1cc(N[C@H]2CC[C@H](O)CC2)n2nc(C)c(C)c2n1", "percent effect": 18.27}
{"compound": "CCCc1nnc(NC(=O)N2CCCC(NC(C)=O)C2)s1", "stereo": "stereo not drawn", "percent effect": 14.29}
{"compound": "Cc1nn(C)c2cnn(Cc3ccc(C(=O)N4CCN(C)CC4)o3)c12", "percent effect": 15.04}
{"compound": "CNC(=O)[C@H]1C[C@@H]2CN(Cc3ccc(OC)cc3)C[C@H]1O2", "percent effect": 11.54}
{"compound": "O=C(O)CC1COCCN1Cc1ccccc1-c1ccccc1", "stereo": "stereo not drawn", "percent effect": -3.448}
{"compound": "CNC(=O)N1CCc2nc(C(=O)NCc3cccc(OC)c3)sc2CC1", "percent effect": 12}
{"compound": "COc1cccc2cc(CNCc3ccnc(N(C)C)c3)oc12", "percent effect": 5.357}
{"compound": "CC(=O)c1ccc(C(=O)NCC2Cc3ccccc3O2)s1", "stereo": "stereo not drawn", "percent effect": 9.677}
{"compound": "CC[C@@H](CO)Nc1nccc(-c2cnc3sc(C)cn3c2=O)n1", "percent effect": 8.571}
{"compound": "CCc1nnsc1C(=O)N1CCCC(c2nc3ccccc3[nH]2)C1", "stereo": "stereo not drawn", "percent effect": 18.18}
{"compound": "CCn1c(C)nnc1SCCn1cc(-c2ncc[nH]2)nn1", "percent effect": 26.23}
{"compound": "O=C(c1cccs1)N1CC[C@@H](N2CCOCC2)[C@@H]1Cc1ccccc1", "percent effect": 10.91}
{"compound": "CC(C)C1CN(C(=O)c2ccn(C)c(=O)c2)c2ccccc2N1", "stereo": "stereo not drawn", "percent effect": 22.12}
{"compound": "CCc1ccc(C(COC)NC(=O)c2ccc(NC(C)=O)cc2)o1", "stereo": "stereo not drawn", "percent effect": 10.62}
{"compound": "CC(=O)N1CCc2c(nc(-c3ccccn3)nc2N(C)CC(O)CO)C1", "stereo": "stereo not drawn", "percent effect": 20.95}
{"compound": "CC(C)c1n[nH]c(C2CN(C(=O)c3ccnc(C4CC4)n3)CCO2)n1", "stereo": "stereo not drawn", "percent effect": 4.425}
{"compound": "CS(=O)(=O)NCC1CCCCN1Cc1ccccc1C#N", "stereo": "stereo not drawn", "percent effect": 16.53}
{"compound": "CN1C(=O)CC(C(=O)O)C12CCN(Cc1ccc(F)c(Cl)c1)CC2", "stereo": "stereo not drawn", "percent effect": 5.263}
{"compound": "CC(=O)Nc1c(C)noc1/C=C\\c1ccc(S(=O)(=O)NC2CC2)cc1", "percent effect": 0}
{"compound": "O=C(N1CCOCC1)N1CCN(c2ccncc2Cl)CC1", "percent effect": 25.37}
{"compound": "CCN(Cc1c(F)cccc1Cl)c1cc(C2CCNCC2)nc(C)n1", "percent effect": 44.9}
{"compound": "CCc1nc(N)sc1C(=O)N1CCC(c2cc(O)nc(C)n2)CC1", "percent effect": 11.57}
{"compound": "CNc1cccc(C2CCCN(C(C)=O)C2)n1", "stereo": "stereo not drawn", "percent effect": 8.571}
{"compound": "CCC(NC(=O)NCc1cccc(N(C)C)n1)c1cccs1", "stereo": "stereo not drawn", "percent effect": 20}
{"compound": "CN1CC(=O)N(c2ccccc2)CC12CCN(CC1CCOCC1)C2", "stereo": "stereo not drawn", "percent effect": 11.5}
{"compound": "N#Cc1cn[nH]c1NCc1cc(I)cc(I)c1O", "percent effect": -11.9}
{"compound": "CC(C)(C(=O)O)S(=O)(=O)c1ccc(Br)cc1", "percent effect": 10.42}
{"compound": "CCN(Cc1cccc(Cl)c1)Cn1nc(C)c2c(C)onc2c1=O", "percent effect": 2.381}
{"compound": "Cc1c(Cl)cccc1S(=O)(=O)N1C[C@@H]2CC[C@H](C1)N(C)C2=O", "percent effect": -2.655}